# Test results as given in PubChem BioAssay AID2099 (Broad Institute, 2009).
# Sequences of proteins named here, by UniProt entry; tags and fusion partners are left off. Residues count along the entry.
# UniProt Q9H3R0, 1-420 limits assumed: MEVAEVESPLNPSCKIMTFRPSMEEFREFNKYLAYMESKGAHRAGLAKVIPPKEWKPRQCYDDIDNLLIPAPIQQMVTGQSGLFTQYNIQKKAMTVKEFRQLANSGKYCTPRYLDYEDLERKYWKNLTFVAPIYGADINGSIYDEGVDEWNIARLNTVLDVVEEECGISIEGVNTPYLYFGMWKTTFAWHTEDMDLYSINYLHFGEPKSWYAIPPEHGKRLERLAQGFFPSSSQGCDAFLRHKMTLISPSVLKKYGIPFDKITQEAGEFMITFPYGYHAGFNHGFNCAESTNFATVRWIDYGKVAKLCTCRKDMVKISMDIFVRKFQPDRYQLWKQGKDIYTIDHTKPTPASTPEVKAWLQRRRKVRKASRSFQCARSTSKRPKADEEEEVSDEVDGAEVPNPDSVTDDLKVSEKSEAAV
# In all, about 330,000 compounds went through this assay and about 230 (0.07%) were called active. This list was built around the results that the source calls inconclusive (neither active nor inactive); the mix of calls is not that of the screen.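 Rule for the calls: active = more than half of a compound's replicate wells show inhibition beyond 50%, single wells judged on their own value; inconclusive = some, but no more than half, of replicates pass 50% inhibition; inactive = no replicate passes 50% inhibition.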
# Biological target: Lysine-specific demethylase 4C (Homo sapiens) (UniProt Q9H3R0)
# Test: inhibitors of GASC-1 histone demethylase, primary screen, biochemical, fluorescence, DELFIA europium (AID 2099);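 note: signal counts dimethyl H3K9 product captured on neutravidin plate; 0% = median of DMSO wells and 100% = 0.3 times that DMSO median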
# Settings: GST-JMJD2C(1-420) H3K9me3 demethylation, at 2.35 µM, active compounds read high
row,SMILES,inhibition
1,Cc1cc(=O)oc2c3c(cc(OCC(=O)NC(Cc4ccc(Cl)cc4)C(=O)O)c12)OC(C)(C)CC3 (stereo unspecified),inconclusive: -499%
2,CCCC(=O)OC(C(=O)Nc1cc(C(F)(F)F)ccc1Cl)c1ccccc1 (stereo unspecified),inconclusive: -56.1%
3,O=C(CCCSc1nc2sc3c(c2c(=O)[nH]1)CCC3)NCCCO,inconclusive: -180%
4,O=C1CSC(=Nc2ccc(O)cc2)N1,inconclusive: -62.4%
5,O=C(C1CCCCC1)N1CCN(c2ccccc2F)CC1,inactive: -20.8%
6,Cc1cc(N2CCN(c3ccccc3)CC2)n2c(n1)nc1ccccc12,inconclusive: -25.4%
7,O=C(Cc1ccc(S(=O)(=O)N2CCOCC2)s1)OCc1ccc(Cl)cc1,inactive: 8.03%
8,O=C(COC(=O)c1ccc(Cl)c([N+](=O)[O-])c1)NC1CCCC1,inactive: 7.32%
9,COCCNC(=O)c1c(N)sc2c1CCCC2,active: 50.1%
10,Cc1ccc(S(=O)(=O)Cn2nnnc2C(C(C)C)N2CCSCC2)cc1 (stereo unspecified),inactive: 78.2%
11,CC(=O)NS(=O)(=O)c1ccc(NC(=O)c2ccc3c(c2)OCO3)cc1,inactive: 0.748%
12,c1ccc(CN2CCN(C(c3ccccc3)c3ccccc3)CC2)cc1,inactive: -5.87%
13,COc1ccc(N2CCN(C(=O)c3ccc(N4CCCCS4(=O)=O)cc3)CC2)cc1,inconclusive: -59%
14,O=S(=O)(NCCc1ccccc1)c1ccc(Br)cc1,inactive: -10.2%
15,O=C(COC(=O)CC1CC2CCC1C2)NCc1ccccc1 (stereo unspecified),inactive: -3.39%
16,COC/C=C/C1=CC2=CC(=O)C(C)(OC(=O)c3cnc4ccccc4n3)C(=O)C2=CN1C1CC1 (stereo unspecified),inconclusive: -83.6%
17,CN1CCc2cccc3c2[C@H]1Cc1ccc(O)c(O)c1-3,inconclusive: -57.5%
18,CC(C)C1Nc2ccc(C(=O)O)cc2C2C=CCC21 (stereo unspecified),inactive: -2.84%
19,O=C(OCC1O[C@@H](OC(=O)c2cc(O)c(O)c(O)c2)[C@@H](OC(=O)c2cc(O)c(O)c(O)c2)[C@@H](OC(=O)c2cc(O)c(O)c(O)c2)[C@@H]1OC(=O)c1cc(O)c(O)c(O)c1)c1cc(O)c(O)c(O)c1 (stereo partly specified),active: 97.3%
20,O=C(Cn1ncc2c(=O)oc3ccccc3c21)Nc1nc2ccccc2s1,inconclusive: -325%
21,CC(=O)c1cc2c(cc1NC(=O)CCC1CCCC1)OCO2,inconclusive: -84.5%
22,COCCCn1c(=NC(C)=O)c(C#N)cc2c(=O)n3cccc(C)c3nc21,inactive: 12.4%

# Four successive entries out of the list so far:
row,SMILES,inhibition
5,O=C(C1CCCCC1)N1CCN(c2ccccc2F)CC1,inactive: -20.8%
6,Cc1cc(N2CCN(c3ccccc3)CC2)n2c(n1)nc1ccccc12,inconclusive: -25.4%
7,O=C(Cc1ccc(S(=O)(=O)N2CCOCC2)s1)OCc1ccc(Cl)cc1,inactive: 8.03%
8,O=C(COC(=O)c1ccc(Cl)c([N+](=O)[O-])c1)NC1CCCC1,inactive: 7.32%

# (cont.)

row,SMILES,inhibition
1,Nc1nc(=S)[nH]c2c1C1(CCCCC1)Cc1ccccc1-2,inactive: 3.4%
2,O=C(NCCN1CCOCC1)c1ccccc1-c1ccccc1,inconclusive: -57.1%
3,Cc1ccc(SCC(=O)OC(C)C(=O)NCc2ccccc2)cc1C (stereo unspecified),inactive: -8.56%
4,O=C(NC1CCCCCCC1)c1c(O)c2ccccc2[nH]c1=O,inconclusive: -84.7%
5,COc1ccccc1C(=O)NC(=O)COC(=O)CN1C(=O)NC(C)(C)C1=O,inconclusive: -90.1%
6,c1cc(CNC23CC4CC(CC(C4)C2)C3)ccn1,inactive: 39.9%
7,CC1(C)CC(NC(=O)C2CCC(=O)N(Cc3ccccc3F)C2)CC(C)(C)C1 (stereo unspecified),inconclusive: -54.5%
8,COc1ccc(OC)c(C(=O)c2ccc(Cl)cc2)c1,inconclusive: -43.9%
9,COC(=O)c1cc(CNC(=O)c2ccc(N3CCCC3)c([N+](=O)[O-])c2)ccc1OC,inconclusive: -64.4%
10,NC(=O)/C(=C/c1ccco1)C(N)=S,inconclusive: -53.2%
11,Cn1c2ccccc2c(=O)c2c(=O)n(Cc3ccco3)c(-c3ccc(C(C)(C)C)cc3)nc21,inactive: 3.73%
12,O=C(COc1ccc2c(-c3ccccc3)cc(=O)oc2c1)NCc1ccccn1,inconclusive: -326%
13,O=C(O)c1cc(O)c2c(c1)[C@@H]([C@H]1c3cc(C(=O)O)cc(O)c3C(=O)c3c(O[C@@H]4O[C@H](CO)[C@@H](O)[C@H](O)[C@H]4O)cccc31)c1cccc(O[C@@H]3O[C@H](CO)[C@@H](O)[C@H](O)[C@H]3O)c1C2=O,active: 91.3%
14,O=C(CSc1nnc(-c2ccco2)o1)c1ccc([N+](=O)[O-])cc1,inconclusive: -38.2%
15,O=C(Nc1ccc(F)cc1)N(CCCN1CCOCC1)Cc1cc2cc3c(cc2[nH]c1=O)OCO3,inactive: -5.16%
16,Cc1cccc(N2C(=O)C3CCCN3C2=S)c1 (stereo unspecified),inactive: -7.74%
17,CC1(C)C/C(=N\NC(=S)Nc2ccccc2F)c2cc(O)ccc2O1,inactive: 6.06%
18,COc1ccc(CN(CC(=O)NC2CCCC2)C(=O)c2csnn2)cc1,inconclusive: -55.1%
19,COc1ccccc1OCCNc1cc(N2CCCCC2)ccc1[N+](=O)[O-],inactive: 1.12%
20,CSc1nc(O)c(C2OC(=O)c3ccccc32)c(=O)[nH]1 (stereo unspecified),inconclusive: -75.9%
21,O=C(N=C1SC2CS(=O)(=O)CC2N1Cc1ccc(F)cc1)C1CCCO1 (stereo unspecified),inconclusive: -102%
22,CCc1nnc(NC(=O)c2cc(-c3ccncc3)nc3ccccc23)s1,inactive: -4.31%

# A second format for some results above:
row	SMILES	inhibition
6	Cc1cc(N2CCN(c3ccccc3)CC2)n2c(n1)nc1ccccc12	inconclusive: -25.4%
7	O=C(Cc1ccc(S(=O)(=O)N2CCOCC2)s1)OCc1ccc(Cl)cc1	inactive: 8.03%

# Remaining list, next part:

row,SMILES,inhibition
1,CC1C(c2ccccc2)N(C)CCC12NC(=O)NC2=O (stereo unspecified),inconclusive: -78.1%
2,COc1ccc2[nH]c(C)c(C(=O)CN(C)C)c2c1,inconclusive: -198%
3,COc1cc2c(cc1OC)[C@H](C)N(C(=S)Nc1ccc(F)cc1)CC2,inconclusive: -50.3%
4,CCC1(CC)NC(=O)N(CC(=O)OCC(=O)Nc2ccc(C(F)(F)F)cc2)C1=O,inconclusive: -335%
5,O=C(O)c1ccccc1CSc1ncn[nH]1,inconclusive: -143%
6,NC(=O)c1c(NC(=O)C2CCCO2)sc2c1CCC2 (stereo unspecified),inconclusive: -60.1%
7,CN(Cc1ccccc1)C(=O)COC(=O)c1ccc(Cl)cc1N,inconclusive: -69.7%
8,CCCCn1c(SCC(=O)Nc2sc3c(c2C(N)=O)CCC3)nnc1-c1ccccc1,inconclusive: -120%
9,C=CCn1c(N)c(C(=O)NCCC2=CCCCC2)sc1=S,inactive: 0.592%
10,CCOc1ccc(CCNC(=O)Cn2cccc2C(=O)c2ccccc2)cc1OCC,inconclusive: -51.2%
11,Cc1ccc(S(=O)(=O)Nc2cccc(-c3ccc(N4CCCCCC4)nn3)c2)c(C)c1,inactive: 0.564%
12,COc1ccc(C(=O)N(Cc2ccco2)Cc2cccs2)c(O)c1,inactive: 7.47%
13,Cc1ccc(S(=O)(=O)CC(=O)Nc2ccc(S(=O)(=O)Nc3onc(C)c3C)cc2)cc1,inconclusive: -199%
14,COCC(=O)N/N=C/c1c(C)[nH]n(-c2ccccc2)c1=O,inactive: -13.3%
15,CN1/C(=C\C(=O)COC(=O)C2COc3ccccc3O2)C(C)(C)c2ccccc21 (stereo unspecified),inconclusive: -60.2%
16,Cn1cnnc1SCC(=O)NC1CCCCCC1,inconclusive: -60.7%
17,CC(C)(C)NC(=O)c1cccc2c1OC(C)(C)C2,inconclusive: -72%
18,Nc1nonc1-n1nnc(C(=O)N/N=C/c2cccc(F)c2)c1CN1CCCCCC1,inactive: -7.7%
19,COc1cc(CCC(=O)Nc2ccc(Cl)c(C(F)(F)F)c2)cc(OC)c1OC,inconclusive: -34.4%
20,CC1(C)CC(NC(=O)COc2ccc3ccc(=O)oc3c2)CC(C)(C)N1,inconclusive: -90.9%
21,CC(=O)c1cccc(NC(=O)CCc2nc3sc4c(c3c(=O)[nH]2)CCCC4)c1,inconclusive: -40%
22,COc1ccccc1NC(=O)CSc1nnc2ccc(-c3ccccn3)nn12,inconclusive: -50.2%

row,SMILES,inhibition
1,Cc1noc(C)c1NC(=O)N(C)C[C@H]1Oc2ccc(NC(=O)Cn3cnnn3)cc2C(=O)N([C@H](C)CO)C[C@@H]1C,active: 66.5%
2,O=C(NCc1cccc(CNC(=O)c2ccco2)c1)c1ccco1,inconclusive: -166%
3,CC(=O)Nc1ccc(/C(C)=N\NC(=O)c2ccc(-c3ccccc3)cc2)cc1,inactive: -32.2%
4,Cc1cccc(C(=O)N2CCN=C2SCc2ccc([N+](=O)[O-])cc2)c1,inactive: -21.8%
5,CC(OC(=O)Cc1ccc(F)cc1)C(=O)NCc1ccc2c(c1)OCO2 (stereo unspecified),inconclusive: -161%
6,Cc1ccc(C(=O)N/N=C\c2cccn2C)cn1,inconclusive: -180%
7,CC(O)CNc1nc2ccccc2n1CC(=O)NC12CC3CC(CC(C3)C1)C2 (stereo unspecified),active: 51.4%
8,O=C(NCCc1ccccc1)c1ccc2nc(-c3ccco3)c(-c3ccco3)nc2c1,inactive: 4.09%
9,CCOC(=O)c1sc(N)c(C#N)c1CSc1nnc(C2CCCCC2)n1N,inactive: -8.26%
10,CC(=O)c1cccc(NC(=S)N2CCN(S(=O)(=O)c3ccccc3)CC2)c1,inactive: -2.28%
11,Cc1cc(C)nc(NNS(=O)(=O)c2ccc(F)c(Cl)c2)n1,inconclusive: -155%
12,O=C(Nc1cc2c3c(c1)CC(=O)N3CCC2)c1ccc(Br)o1,inconclusive: -21.1%
13,O=C(CCCCCNC(=O)N1CCn2c1nc1ccccc12)NCc1ccc(F)cc1,inconclusive: -99.1%
14,O=C(CCl)N(CCc1ccccc1)CCc1ccccc1,inactive: -3.89%
15,CCc1ccc(CNC(=O)Cn2nc(-c3ccccc3)ccc2=O)cc1,inactive: 3.87%
16,CC(=O)c1ccc(O)c(CO)c1,inconclusive: -60.5%
17,Cc1ccc(C(=O)Nn2c(O)c(C=C3N=c4ccccc4=N3)sc2=S)cc1,inactive: 2.27%
18,O=c1[nH]cc(N=Cc2cc(Cl)cc(Cl)c2O)c(=O)[nH]1,active: 65.6%
19,COc1ccc(C(CNC(=O)CNC(=O)c2ccccc2Cl)N2CCCC2)cc1 (stereo unspecified),inactive: -5.44%
20,C[C@H](NC(=O)c1nc[nH]c1C(=O)N[C@@H](Cc1ccccc1)C(=O)OCc1ccccc1)c1ccccc1,inactive: -2.74%
